This assay addresses 人源重组C5蛋白 (Sino Biologica, Cat#13416-H18H) (human) (UniProt P01031). Kind of assay: direct ELISA, C5 coated at 1 μg/mL, anti-Fc-HRP detection. (In an ELISA, binding on a coated surface is turned into a signal by an enzyme label.)

Protein sequences, listed by entry. Tags and fused reporters are not part of them. Lines headed by an entry give the natural chain unless they say otherwise; changes in a name come on top. Residues count along the entry.
UniProt P01031, residues 19-1676: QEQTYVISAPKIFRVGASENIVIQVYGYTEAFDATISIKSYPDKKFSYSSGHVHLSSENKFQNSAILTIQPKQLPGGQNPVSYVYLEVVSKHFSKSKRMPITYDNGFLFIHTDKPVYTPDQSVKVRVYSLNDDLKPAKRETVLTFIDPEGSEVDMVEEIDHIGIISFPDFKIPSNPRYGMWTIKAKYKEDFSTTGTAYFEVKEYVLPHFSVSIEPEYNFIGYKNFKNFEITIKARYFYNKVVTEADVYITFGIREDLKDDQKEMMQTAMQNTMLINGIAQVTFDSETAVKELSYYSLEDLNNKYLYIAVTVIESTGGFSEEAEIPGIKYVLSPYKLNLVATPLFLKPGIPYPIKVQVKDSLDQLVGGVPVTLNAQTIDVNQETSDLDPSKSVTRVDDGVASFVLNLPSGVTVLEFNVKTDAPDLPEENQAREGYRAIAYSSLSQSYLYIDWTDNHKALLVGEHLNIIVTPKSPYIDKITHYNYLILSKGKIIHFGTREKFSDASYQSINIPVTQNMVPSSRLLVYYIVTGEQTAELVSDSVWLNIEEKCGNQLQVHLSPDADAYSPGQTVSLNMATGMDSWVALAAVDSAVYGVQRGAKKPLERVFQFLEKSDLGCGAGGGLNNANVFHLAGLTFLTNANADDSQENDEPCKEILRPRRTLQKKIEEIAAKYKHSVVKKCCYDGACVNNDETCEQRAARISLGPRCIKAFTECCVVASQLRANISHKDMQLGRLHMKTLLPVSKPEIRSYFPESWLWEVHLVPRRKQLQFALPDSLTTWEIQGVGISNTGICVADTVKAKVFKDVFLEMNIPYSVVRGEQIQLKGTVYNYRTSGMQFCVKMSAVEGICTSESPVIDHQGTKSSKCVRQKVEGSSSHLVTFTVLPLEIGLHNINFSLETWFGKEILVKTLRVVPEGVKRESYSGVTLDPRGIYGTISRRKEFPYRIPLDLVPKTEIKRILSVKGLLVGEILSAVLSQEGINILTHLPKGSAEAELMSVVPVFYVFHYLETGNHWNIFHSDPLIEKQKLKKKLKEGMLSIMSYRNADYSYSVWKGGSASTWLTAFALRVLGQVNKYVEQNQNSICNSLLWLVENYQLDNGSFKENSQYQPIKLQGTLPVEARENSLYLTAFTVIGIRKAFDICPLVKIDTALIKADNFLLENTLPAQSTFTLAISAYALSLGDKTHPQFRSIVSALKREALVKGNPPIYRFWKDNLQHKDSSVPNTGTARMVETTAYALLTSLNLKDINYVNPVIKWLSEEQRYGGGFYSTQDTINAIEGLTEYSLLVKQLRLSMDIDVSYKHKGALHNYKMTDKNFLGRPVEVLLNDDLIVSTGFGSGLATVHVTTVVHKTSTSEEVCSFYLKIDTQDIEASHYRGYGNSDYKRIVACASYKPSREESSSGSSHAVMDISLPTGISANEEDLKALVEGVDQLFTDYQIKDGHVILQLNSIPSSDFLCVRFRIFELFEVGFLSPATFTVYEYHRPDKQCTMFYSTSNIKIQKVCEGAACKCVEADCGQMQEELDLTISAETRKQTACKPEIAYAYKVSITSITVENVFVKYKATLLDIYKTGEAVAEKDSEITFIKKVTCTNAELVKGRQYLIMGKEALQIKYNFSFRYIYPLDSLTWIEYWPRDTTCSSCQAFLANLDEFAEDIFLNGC

No constants are given. Whether binding was seen depends on the method and setting. Some entries that bind do so weakly or less than the wild type.

B1: CR3#30/IgG4 (antibody, V domains shown)
VH: QVQLVESGAEVKKPGASVKVSCKASGYTFTSYYMHWVRQAPGQGLEWMGIINPSGGSTSYAQKFQGRVTMTRDTSTSTVYMELSSLRSEDTAVYYCARGTVDDAFDIWGQGTMVTVSS
VL: QSALTQPPSASGSPGQSVTISCTGTSSDVGGYDLVSWYQQHPGKAPKLMIYDVSKRPSGVPDRFSGSKSGNTASLTVSGLQADDEADYYCSSFADSNNWEVVFGGGTKLTVLG
As to B1, the binding entry is reported as “binds”.

B2: CR3#24/IgG4 (antibody, V domains shown)
VH: EVQLVQSGAEVKKPGAAVKISCKVSGYTFTDYYMHWVQQAPGKGLEWMGVVDPEDGEIIYAEKFQGRITITADTSTDTVYMELSSLRSEDTAVYYCARSDYGAGSYMVDPWGQGTLVTVSS
VL: SYVLTQPPSVSVTPGKTARIACGGNNLESKIVSWYQQKPGQAPVLVIFYDTDRPSGISERFSGSNSGNTATLTISRVEAGDEADYYCQVWDSNSDHVIFGGGTKLTVLG
For the molecule B2, the binding entry is on record as “binds”.

(Values after patent CN114149501A.)
